Results deposited as PubChem BioAssay AID1259308 (NCATS, 2017).

Assay: 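Candidate targets for better recombinant protein yield in mammalian cells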 (primary screen)
System: human HEK293 embryonic kidney cells stably expressing firefly luciferase (HEK-CMV-Luc2-Hygro)
Knock-down reagent: single siRNA against human genes, 0.8 pmol siRNA per well
Duration: 72 h
Detection: 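Reporter luminescence and viable-cell signal on separate replicate plates, given as percent of non-targeting control and median/MAD z-scores, plus per-cell luciferase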
Reading the numbers: total luciferase, z-score and total luciferase, % of control: higher = more reporter protein produced; luciferase per cell, z-score: higher = more reporter output per viable cell; viable cells, % of control: higher = more viable cells
Rule for the call: 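An siRNA counts as active if its total luciferase robust z-score exceeds 3; genes with two or more such siRNAs out of three were retested with fresh siRNAs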
Meaning of the calls: active = raised luciferase; inactive = no rise
The deposit covers about 59,000 reagents; this is an unselected part. About 1,510 of all reagents (2.6%) count as active. 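Calls use total luciferase alone and ignore viability, so some active siRNAs may act by altering cell number.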 Unmarked entries are inactive. Reagents against one gene are numbered here.

gene knocked down	reagent no.	total luciferase, z-score	total luciferase, % of control	luciferase per cell, z-score	viable cells, % of control
CDC50A (cell division cycle 50 P4-ATPase accessory subunit A)	1	-0.176	78.4	-0.113	90.2
CDC50A (cell division cycle 50 P4-ATPase accessory subunit A)	2	-0.369	74.6	0.199	79.1
CDC50A (cell division cycle 50 P4-ATPase accessory subunit A)	3	0.687	95.5	0.236	100
DIRC3 (disrupted in renal carcinoma 3)	1	0.566	93.1	0.154	99.9
DIRC3 (disrupted in renal carcinoma 3)	2	-1.37	54.6	-1.3	86
DIRC3 (disrupted in renal carcinoma 3)	3	3.14 (active)	144	2.45	84.5
PCNX1 (pecanex 1)	1	0.368	89.2	0.318	91.7
PCNX1 (pecanex 1)	2	-0.951	63	-1.48	104
PCNX1 (pecanex 1)	3	0.888	99.5	0.781	90.6
PDGFRA (platelet derived growth factor receptor alpha)	1	0.199	85.8	0.132	92.6
PDGFRA (platelet derived growth factor receptor alpha)	2	-1.2	58	-1.3	91.2
PDGFRA (platelet derived growth factor receptor alpha)	3	-1.06	60.8	-1.27	95
BAG1 (BAG cochaperone 1)	1	1.25	107	0.953	92.8
BAG1 (BAG cochaperone 1)	2	2.24	126	2.71	69.2
BAG1 (BAG cochaperone 1)	3	0.0105	82.1	-0.155	95.6
TELO2 (telomere maintenance 2)	1	-2.12	39.7	-2.58	87.5
TELO2 (telomere maintenance 2)	2	-2.12	39.7	-2.86	94.2
TELO2 (telomere maintenance 2)	3	0.295	87.8	-0.341	107
TMED5 (transmembrane p24 trafficking protein 5)	1	-1.18	58.4	-0.911	83
TMED5 (transmembrane p24 trafficking protein 5)	2	-0.583	70.3	-0.881	99.1
TMED5 (transmembrane p24 trafficking protein 5)	3	0.29	87.7	-0.0492	99.2
BRF2 (BRF2 general transcription factor IIIB subunit)	1	0.54	92.6	-0.218	110
BRF2 (BRF2 general transcription factor IIIB subunit)	2	1.73	116	1.32	91.8
BRF2 (BRF2 general transcription factor IIIB subunit)	3	0.0377	82.6	-0.675	110
IPO4 (importin 4)	1	1.37	109	1.14	90.3
IPO4 (importin 4)	2	0.36	89.1	-0.612	117
IPO4 (importin 4)	3	1.3	108	2.21	67.3
ATIC	1	1.86	119	1.33	93.6
ATIC	2	0.239	86.6	0.386	87.5
ATIC	3	-1.21	57.9	-1.04	85.2
UQCRQ (ubiquinol-cytochrome c reductase complex III subunit VII)	1	-0.93	63.4	-1.39	102
UQCRQ (ubiquinol-cytochrome c reductase complex III subunit VII)	2	-0.525	71.4	-0.571	92.8
UQCRQ (ubiquinol-cytochrome c reductase complex III subunit VII)	3	0.523	92.3	0.357	93.9
NHP2 (NHP2 ribonucleoprotein)	1	0.933	100	1.64	73
NHP2 (NHP2 ribonucleoprotein)	2	6.07 (active)	203	4.18	75.3
NHP2 (NHP2 ribonucleoprotein)	3	0.47	91.2	1.03	77.7
ELAPOR1	1	0.615	94.1	0.902	82.9
ELAPOR1	2	-0.486	72.2	-0.386	89.4
ELAPOR1	3	1.04	103	1.02	87.6
TAS1R3 (taste 1 receptor member 3)	1	0.479	91.4	0.815	82.4
TAS1R3 (taste 1 receptor member 3)	2	-1.4	54.1	-2.04	104
TAS1R3 (taste 1 receptor member 3)	3	1.94	121	1.45	91.9
LSP1 (lymphocyte specific protein 1)	1	0.798	97.8	0.212	103
LSP1 (lymphocyte specific protein 1)	2	-0.147	79	-0.117	91
LSP1 (lymphocyte specific protein 1)	3	0.208	86	-0.285	104
SLC5A8	1	-0.0612	80.7	-0.416	101
SLC5A8	2	0.655	94.9	-0.063	108
SLC5A8	3	-2.03	41.5	-2.51	89.7
TMCO2 (transmembrane and coiled-coil domains 2)	1	-0.947	63.1	-0.372	77.7
TMCO2 (transmembrane and coiled-coil domains 2)	2	0.202	85.9	0.313	88.4
TMCO2 (transmembrane and coiled-coil domains 2)	3	-0.666	68.6	-0.924	97.8
IPO9 (importin 9)	1	0.578	93.4	0.0372	103
IPO9 (importin 9)	2	0.711	96	0.259	100
IPO9 (importin 9)	3	-0.448	73	-1.04	107
LOC647264 (keratin-associated protein 21-1)	1	0.37	89.2	0.447	88.7
LOC647264 (keratin-associated protein 21-1)	2	-0.337	75.2	-0.534	96.7
LOC647264 (keratin-associated protein 21-1)	3	0.533	92.5	0.0763	101
